Results as given in PMC7891750.
Results are given in words; binding and its absence hold for the method and conditions named. In cells and extracts the contact can be indirect. For some of these results: Binding can be weak; no strength is given. For some of these results: Sequences can lack the tags named with a protein.

B1: zebrafish transmembrane protein 33 (TMEM33), Myc-tagged (protein, UniProt A0A8M1PJV5 1-252)
chain: MADTEQRSPPPPPPPQAGAAQFLLSNKLETAMWLSRLFTVYCSIMFILPLLGPQAAANFYQRALLANALTSALRLHQRLPHFQLSRAFLAQALQEDSCHYLLYSLILVNSYPITMSIFPVFLFSLLHATTYTKKVLDTMGPNSLMFVRNFLNKLTSNQQNILKFIACNEIFLMPATVFMLFSGQGSLLQPFIYYRFLTLRYSSRRNPYCRTLFTELRILLEHFVMKPSCPVFFRRMCLNSIAFVSRLAPTGV
B2: zebrafish transmembrane protein 33 (TMEM33), full-length, in HEK 293T cells (protein, UniProt A0A8M1PJV5 1-252)
chain: B1 chain

Columns and labels:
[1] = target: zebrafish mitochondrial antiviral signaling protein (MAVS), Flag-tagged (zebrafish); experiment: co-IP; EPC cells co-transfected; lysates immunoprecipitated with anti-Flag affinity gel, immunoblot of the tagged partner
[2] = target: zebrafish IFN regulatory factor 3 (IRF3), Flag-tagged (zebrafish); experiment: as above
[3] = target: TBK1-ΔN (zebrafish); experiment: co-IP; HEK 293T cells co-transfected (5 μg each plasmid), 24 h; RIPA lysis buffer; anti-Flag or anti-Myc affinity gel overnight at 4°C; immunoblot
[4] = target: TBK1-ΔC (zebrafish); experiment: as above

| Binder | binding [1] | binding [2] | binding [3] | binding [4] |
| --- | --- | --- | --- | --- |
| B1 | binds | binds | – | – |
| B2 | – | – | no binding | binds |
